Laboratory results reported in publication PMC12412611.
No constants are given. Whether binding was seen depends on the method and setting. Binding can be weak; no strength is given.

Chains of the proteins cited; added tags and fusions are not shown. Lines headed by an entry give the natural chain unless they say otherwise; changes in a name come on top.
UniProt Q13263: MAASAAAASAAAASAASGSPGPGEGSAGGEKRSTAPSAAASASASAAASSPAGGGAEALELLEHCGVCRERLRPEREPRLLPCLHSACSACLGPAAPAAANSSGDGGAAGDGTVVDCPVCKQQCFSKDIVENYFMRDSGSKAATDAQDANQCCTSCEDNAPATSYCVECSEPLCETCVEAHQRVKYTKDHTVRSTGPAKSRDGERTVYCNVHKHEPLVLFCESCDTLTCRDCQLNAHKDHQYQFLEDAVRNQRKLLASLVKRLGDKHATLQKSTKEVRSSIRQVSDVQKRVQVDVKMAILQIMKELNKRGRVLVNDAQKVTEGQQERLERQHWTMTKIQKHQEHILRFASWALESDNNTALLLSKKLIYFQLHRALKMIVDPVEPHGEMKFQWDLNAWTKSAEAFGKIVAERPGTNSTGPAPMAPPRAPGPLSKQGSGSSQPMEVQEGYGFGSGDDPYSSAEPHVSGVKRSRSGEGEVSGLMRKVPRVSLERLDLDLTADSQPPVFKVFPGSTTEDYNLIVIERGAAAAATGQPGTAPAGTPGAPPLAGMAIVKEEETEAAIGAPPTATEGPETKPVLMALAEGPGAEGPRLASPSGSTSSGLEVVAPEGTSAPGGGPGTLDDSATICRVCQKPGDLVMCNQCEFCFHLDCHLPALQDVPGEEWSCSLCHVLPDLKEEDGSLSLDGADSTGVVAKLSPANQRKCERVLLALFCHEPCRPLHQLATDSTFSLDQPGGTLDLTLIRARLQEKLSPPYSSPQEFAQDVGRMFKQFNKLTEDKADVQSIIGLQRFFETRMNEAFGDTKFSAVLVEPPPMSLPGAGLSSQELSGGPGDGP
UniProt P57764: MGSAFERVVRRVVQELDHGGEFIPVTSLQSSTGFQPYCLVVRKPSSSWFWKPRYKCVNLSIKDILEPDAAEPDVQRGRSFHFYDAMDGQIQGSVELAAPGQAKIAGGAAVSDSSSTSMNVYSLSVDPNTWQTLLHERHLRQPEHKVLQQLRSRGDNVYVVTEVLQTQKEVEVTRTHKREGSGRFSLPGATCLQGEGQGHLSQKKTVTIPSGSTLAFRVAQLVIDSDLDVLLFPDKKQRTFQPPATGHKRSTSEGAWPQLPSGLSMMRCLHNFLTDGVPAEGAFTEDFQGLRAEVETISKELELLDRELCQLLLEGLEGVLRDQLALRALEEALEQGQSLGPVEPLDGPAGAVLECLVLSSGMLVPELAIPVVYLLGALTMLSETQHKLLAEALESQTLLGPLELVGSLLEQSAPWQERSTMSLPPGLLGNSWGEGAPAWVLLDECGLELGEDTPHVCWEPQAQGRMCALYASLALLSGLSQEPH
UniProt O95786: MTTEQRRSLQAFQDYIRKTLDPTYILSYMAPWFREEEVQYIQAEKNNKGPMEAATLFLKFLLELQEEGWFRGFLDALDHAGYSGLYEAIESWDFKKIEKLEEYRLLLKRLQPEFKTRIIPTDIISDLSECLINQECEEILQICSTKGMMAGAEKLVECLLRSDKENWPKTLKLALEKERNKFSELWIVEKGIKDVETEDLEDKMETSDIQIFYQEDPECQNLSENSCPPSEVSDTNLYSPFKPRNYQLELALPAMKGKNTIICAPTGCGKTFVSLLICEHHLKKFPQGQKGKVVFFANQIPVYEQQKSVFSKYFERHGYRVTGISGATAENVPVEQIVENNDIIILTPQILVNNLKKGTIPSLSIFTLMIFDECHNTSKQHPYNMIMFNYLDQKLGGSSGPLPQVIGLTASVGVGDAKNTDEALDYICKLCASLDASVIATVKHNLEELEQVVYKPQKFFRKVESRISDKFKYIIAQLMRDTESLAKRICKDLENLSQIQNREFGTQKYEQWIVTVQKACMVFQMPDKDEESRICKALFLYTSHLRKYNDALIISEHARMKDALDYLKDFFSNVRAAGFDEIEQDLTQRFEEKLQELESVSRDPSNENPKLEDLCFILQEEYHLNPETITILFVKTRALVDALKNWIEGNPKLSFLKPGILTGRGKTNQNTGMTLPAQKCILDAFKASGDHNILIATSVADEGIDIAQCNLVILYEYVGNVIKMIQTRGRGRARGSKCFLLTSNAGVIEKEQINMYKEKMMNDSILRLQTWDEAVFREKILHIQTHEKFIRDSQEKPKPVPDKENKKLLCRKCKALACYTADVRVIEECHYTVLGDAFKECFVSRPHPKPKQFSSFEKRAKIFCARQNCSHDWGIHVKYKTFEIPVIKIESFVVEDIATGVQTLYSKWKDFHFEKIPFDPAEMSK
UniProt Q9UHD2: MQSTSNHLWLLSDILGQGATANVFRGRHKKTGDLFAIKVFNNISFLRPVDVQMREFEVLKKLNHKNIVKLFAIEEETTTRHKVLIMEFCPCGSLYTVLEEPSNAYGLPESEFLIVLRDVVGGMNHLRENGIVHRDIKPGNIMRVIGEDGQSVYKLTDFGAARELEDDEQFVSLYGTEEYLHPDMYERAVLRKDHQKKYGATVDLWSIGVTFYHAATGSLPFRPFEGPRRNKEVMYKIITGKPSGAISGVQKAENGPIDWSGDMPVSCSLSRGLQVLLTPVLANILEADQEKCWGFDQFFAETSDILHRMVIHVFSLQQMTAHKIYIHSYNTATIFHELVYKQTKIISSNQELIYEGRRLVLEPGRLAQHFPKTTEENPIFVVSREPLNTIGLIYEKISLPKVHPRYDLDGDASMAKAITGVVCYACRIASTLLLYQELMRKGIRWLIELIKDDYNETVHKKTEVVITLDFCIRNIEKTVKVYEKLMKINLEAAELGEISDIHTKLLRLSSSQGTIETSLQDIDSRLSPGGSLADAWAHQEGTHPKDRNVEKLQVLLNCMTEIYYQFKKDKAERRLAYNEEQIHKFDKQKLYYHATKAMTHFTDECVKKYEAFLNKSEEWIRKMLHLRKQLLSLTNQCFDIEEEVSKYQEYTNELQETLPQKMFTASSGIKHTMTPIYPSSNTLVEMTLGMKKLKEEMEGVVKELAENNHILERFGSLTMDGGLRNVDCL

How the values were obtained:
[1] = target: HA-TRIM28 (Tripartite motif-containing 28) (UniProt Q13263); assay: pull-down; in vitro pull-down: proteins expressed separately in HEK293T and enriched on antibody beads; Flag-tagged protein eluted with Flag peptide (100 µg/mL, 2 h, 4 °C) and incubated overnight at 4 °C with HA-tagged protein immobilised on HA beads; detected with anti-Flag; both purified
[2] = target: HA-GSDMD-CT (C-terminal domain of gasdermin D) (human) (UniProt P57764); assay: as above

binding [1] | binding [2] | Substance
binds |  | Flag-GSDMD-CT (C-terminal domain of gasdermin D) (from UniProt P57764) (domain or fragment)
 | binds | Flag-RIG-I (retinoic acid-inducible gene I) (from UniProt O95786 1-925)
 | binds | Flag-TBK1 (tank-binding kinase) (from UniProt Q9UHD2 1-729) (enzyme)
